# Test results taken from PubChem BioAssay AID198 (DTP/NCI, 2004).
# The list does not hold the whole screen: it covers a few groups of compounds. Other doses and runs of a compound may be missing. T/C: endpoint of the treated group in % of that of the vehicle group. Where survival is the endpoint, the PubChem record calls one and a half times the control and up active, and a quarter to a half above the control has no call in these data; cut-offs in other NCI protocols can differ. Some entries show no survivor count and are marked so; the dose need not have been tolerated. Schedules are NCI's codes, read here as Q, the interval in days (D) or hours (H), X, the number of doses. Some entries hold several experiments; their values stand side by side, smallest first.
# Test system: B16 melanoma ip, C57BL/6 mice, median survival T/C
# Assay: NCI In Vivo Anticancer Drug Screen. Data for tumor model B16 Melanoma (intraperitoneal) in C57BL/6 mice
# Details: T/C endpoint: median survival time, schedule: Q01DX009 (ip), vehicle: saline, higher T/C = longer survival
# Experimental: The antitumor activity of compounds was measured in mice bearing transplantable tumors. Survival or tumor size were measured and the results are expressed as the measurement made in the treated group (T) divided by the measurement made in the vehicle treated control group (C). The tumor model used in this assay is B16 Melanoma (intraperitoneal) in C57BL/6 mice
smiles,measurement,setting,value
CC(C(=O)O)N(CCCl)CCCl (centres undefined),T/C,dose: 0.5 mg/kg/injection,125 % of control [survivor count not shown]
same,T/C,dose: 1.0 mg/kg/injection,121 [survivor count not shown] and 161 % of control [survivor count not shown]
same,T/C,dose: 2.0 mg/kg/injection,150 [survivor count not shown] and 203 % of control [survivor count not shown]
same,T/C,dose: 4.0 mg/kg/injection,119 % of control [survivor count not shown]
